The test system of this test is Werner syndrome hMSCs (WRN-/-). The test can be described thus: relative cell density (fold change vs vehicle control); higher = more proliferation (geroprotective). As to conditions: concentration (umol/L): 1, 6 days.

Molecules are shown by their SMILES. The list shows a part of the results. Several reference drugs read as weak here; read low effects with care.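 The cells are human mesenchymal stem cells that lack the Werner syndrome gene and age prematurely. Growth was tracked by automated live-cell imaging in three biological repeats, and the twenty drugs that most raised growth over vehicle were taken forward, with no fixed cutoff stated.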

Turning to `O=S(=O)(O)CCS`, the relative cell density (vehicle: DMSO) stood at 0.994.

The molecule `CCOC(=O)OC(C)OC1=C(C(=O)Nc2ccccn2)N(C)S(=O)(=O)c2ccccc21` (configuration not stated) came in with a relative cell density (vehicle: DMSO) of 1.19.

Molecule `O=C(Nc1c(Cl)cncc1Cl)c1ccc(OC(F)F)c(OCC2CC2)c1` displayed a relative cell density (vehicle: DMSO) of 1.38.

`CCCS(=O)(=O)Nc1ccc(F)c(C(=O)c2c[nH]c3ncc(-c4ccc(Cl)cc4)cc23)c1F` registered a relative cell density (vehicle: DMSO) of 0.975.

Molecule `CCCCNC(=O)NS(=O)(=O)c1ccc(C)cc1` gave a relative cell density (vehicle: DMSO) of 1.25.

`O=C(O)c1cc(-c2ccc(F)cc2F)ccc1O` came in with a relative cell density (vehicle: DMSO) of 1.11.

Turning to `CCCCCCCN(CC)CCCC(O)c1ccc(NS(C)(=O)=O)cc1` (configuration not stated), the relative cell density (vehicle: DMSO) amounted to 1.08.

Under “vehicle: DMSO”, `CC1(C)S[C@@H]2[C@H](NC(=O)[C@H](NC(=O)N3CCN(S(C)(=O)=O)C3=O)c3ccccc3)C(=O)N2[C@H]1C(=O)O` displayed a relative cell density of 1.

For the molecule `COc1cc(Nc2ncc(F)c(Nc3ccc4c(n3)N(COP(=O)(O)O)C(=O)C(C)(C)O4)n2)cc(OC)c1OC`, the relative cell density was 0.323 (vehicle: DMSO) and 0.147 (vehicle: Water).

The molecule `COc1ccc(-c2cc(=O)c3c(O)cc(O[C@@H]4O[C@H](CO[C@@H]5O[C@@H](C)[C@H](O)[C@@H](O)[C@H]5O)[C@@H](O)[C@H](O)[C@H]4O)cc3o2)cc1O` returned a relative cell density (vehicle: Water) of 0.857.

For the setting “vehicle: DMSO”, `CN1CC2c3ccccc3Oc3ccc(Cl)cc3C2C1` (configuration not stated) returned a relative cell density of 1.18.

Molecule `CC(C)(C)NC(=O)N[C@H](C(=O)N1C[C@H]2[C@@H]([C@H]1C(=O)NC(CC1CCC1)C(=O)C(N)=O)C2(C)C)C(C)(C)C` (some centres not stated) yielded a relative cell density (vehicle: DMSO) of 1.17.

In the case of `c1ccc2[nH]c(-c3cscn3)nc2c1`, the relative cell density (vehicle: DMSO) amounted to 1.02.

Under “vehicle: DMSO”, `CCCCCCCCc1ccc(CCC(N)(CO)CO)cc1` showed a relative cell density of 1.17.

Molecule `C[C@]12CC[C@@H]3c4ccc(O)cc4CC[C@H]3[C@@H]1CCC2=O` displayed a relative cell density (vehicle: DMSO) of 1.07.

Under “vehicle: DMSO”, `COc1cc(C(=O)NC2CCCNC2)cc(OC)c1OC` (configuration not stated) displayed a relative cell density of 1.07.

`CN1CCC(COc2cnc(-c3cccc(Cn4nc(-c5cccc(C#N)c5)ccc4=O)c3)nc2)CC1` gave a relative cell density (vehicle: DMSO) of 0.837.

As for `CC(C)c1cc(C(=O)N2Cc3ccc(CN4CCN(C)CC4)cc3C2)c(O)cc1O`, the relative cell density (vehicle: DMSO) stood at 0.698.

On to `CCOC(=O)C1=C[C@]2(CC)CCCN3CCc4c(n1c1ccccc41)[C@@H]32`, for which the relative cell density (vehicle: Water) was found to be 0.951.

For `O=NN(CCCl)C(=O)NC1CCCCC1`, the relative cell density (vehicle: DMSO) worked out at 0.996.

`COc1cnc(NS(=O)(=O)c2ccc(N)cc2)nc1` returned a relative cell density (vehicle: DMSO) of 1.07.

In the case of `O=C(O)CCC(=O)Nc1ccc(S(=O)(=O)Nc2nccs2)cc1`, under “vehicle: DMSO”, the relative cell density was 1.2.

In turn, `O=C([O-])[C@H](O)[C@@H](O)[C@H](O)[C@H](O)CO.[Na+]` registered a relative cell density (vehicle: Water) of 1.14.

As to `Cc1cccc(CN2CCN(C(c3ccccc3)c3ccc(Cl)cc3)CC2)c1` (configuration not stated), the relative cell density (vehicle: Water) stood at 1.2.

The molecule `COc1cc(Cc2cnc(N)nc2N)cc(OC)c1OC` displayed a relative cell density (vehicle: DMSO) of 0.977.

For the setting “vehicle: Water”, `COc1cc2c(cc1OC)C(=O)C(CC1CCN(Cc3ccccc3)CC1)C2` (configuration not stated) came in with a relative cell density of 0.837.

Regarding `OC[C@@H](O)[C@H](O)[C@@H](O)CO`, the relative cell density (vehicle: DMSO) was 1.39.

`CC1(COc2ccc3c(c2)ncn3-c2ccc3cccc(N4CCC(N)CC4)c3n2)COC1` returned a relative cell density (vehicle: DMSO) of 0.93.

As to `CNCC[C@H](Oc1cccc2ccccc12)c1cccs1`, for the setting “vehicle: DMSO”, the relative cell density turned out to be 1.14.

On to `CC1CCC(C(C)C)C(O)C1` (configuration not stated), for which the relative cell density (vehicle: DMSO) turned out to be 1.14.

`Cc1c(C(N)=O)cc([N+](=O)[O-])cc1[N+](=O)[O-]`: where the note is “vehicle: DMSO”, the relative cell density turned out to be 0.932.

In the case of `C=C[C@H]1CN2CC[C@H]1C[C@@H]2[C@@H](O)c1ccnc2ccc(OC)cc12`, the relative cell density (vehicle: DMSO) amounted to 1.18.

With `N=C(N)N`, for the setting “vehicle: DMSO”, the relative cell density was 0.999.

Where the note is “vehicle: DMSO”, `N#Cc1ccc2[nH]cc(CCCCN3CCN(c4ccc5oc(C(N)=O)cc5c4)CC3)c2c1` displayed a relative cell density of 0.152.

Molecule `CN1C(C(=O)Nc2ccccn2)=C(O)c2sccc2S1(=O)=O` showed a relative cell density (vehicle: DMSO) of 1.17.

`Cc1ncc([N+](=O)[O-])n1CC(O)CCl` (configuration not stated): the relative cell density (vehicle: DMSO) came out at 1.13.

For the molecule `Cc1cccc(C)c1NC(=O)C1CCCCN1C` (configuration not stated), the relative cell density (vehicle: DMSO) was 0.997.

Regarding `CN(C)c1ccc2nc3ccc(=[N+](C)C)cc-3sc2c1`, the relative cell density (vehicle: DMSO) turned out to be 1.23.

For the setting “vehicle: DMSO”, `FC(F)(F)c1ccc(CNc2ccc(Cc3c[nH]c4ncc(Cl)cc34)cn2)cn1` came in with a relative cell density of 0.87.

The molecule `CN(C)CCC=C1c2ccccc2CCc2ccccc21` gave a relative cell density (vehicle: DMSO) of 1.3.

Under “vehicle: DMSO”, `Cc1ccnc2c1NC(=O)c1cccnc1N2C1CC1` displayed a relative cell density of 1.1.

With `C#C[C@]1(O)CC[C@H]2[C@@H]3CCc4cc(OC5CCCC5)ccc4[C@H]3CC[C@@]21C`, the relative cell density (vehicle: DMSO) came to 1.03.

On to `Cc1[nH]c(=O)c(C#N)cc1-c1ccncc1`, for which the relative cell density (vehicle: DMSO) was found to be 0.991.

The molecule `Cn1c(=O)c2[nH]cnc2n(C)c1=O` showed a relative cell density (vehicle: DMSO) of 1.11.

As to `CS(=O)(=O)c1ccc(C2=C(c3ccccc3)C(=O)OC2)cc1`, the relative cell density (vehicle: DMSO) was found to be 1.62.

For the molecule `NC(=O)c1ncn([C@@H]2O[C@H](CO)[C@@H](O)[C@H]2O)n1`, the relative cell density (vehicle: DMSO) amounted to 1.12.

Source of the values: the supplement of paper PMC9226226.
